Laboratory results: the supplement of paper PMC10849652
The list shows a part of the results.

The chains behind the UniProt entries cited, without tags or fusion partners. Where a name states a change or a piece, a line headed by the entry shows the natural chain unless it says otherwise.
UniProt Q6Y2X3: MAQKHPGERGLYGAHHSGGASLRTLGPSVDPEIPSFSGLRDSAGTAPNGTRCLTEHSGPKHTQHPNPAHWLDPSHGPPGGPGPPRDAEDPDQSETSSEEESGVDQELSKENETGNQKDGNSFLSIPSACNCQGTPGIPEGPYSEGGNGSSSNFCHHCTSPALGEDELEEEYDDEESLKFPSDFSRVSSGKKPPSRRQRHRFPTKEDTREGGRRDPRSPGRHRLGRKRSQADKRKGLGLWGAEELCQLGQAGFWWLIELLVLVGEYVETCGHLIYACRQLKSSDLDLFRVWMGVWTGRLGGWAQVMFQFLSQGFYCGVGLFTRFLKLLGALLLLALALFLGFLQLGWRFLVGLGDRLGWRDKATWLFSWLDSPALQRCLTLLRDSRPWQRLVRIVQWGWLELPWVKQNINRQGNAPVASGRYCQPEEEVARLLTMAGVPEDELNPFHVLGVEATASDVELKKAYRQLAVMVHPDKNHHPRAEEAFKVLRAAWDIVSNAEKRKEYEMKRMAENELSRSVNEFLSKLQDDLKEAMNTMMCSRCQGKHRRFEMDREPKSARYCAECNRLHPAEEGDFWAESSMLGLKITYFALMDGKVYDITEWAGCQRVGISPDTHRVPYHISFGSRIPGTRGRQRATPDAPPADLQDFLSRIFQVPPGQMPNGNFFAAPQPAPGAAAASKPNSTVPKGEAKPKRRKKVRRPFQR
UniProt Q16610: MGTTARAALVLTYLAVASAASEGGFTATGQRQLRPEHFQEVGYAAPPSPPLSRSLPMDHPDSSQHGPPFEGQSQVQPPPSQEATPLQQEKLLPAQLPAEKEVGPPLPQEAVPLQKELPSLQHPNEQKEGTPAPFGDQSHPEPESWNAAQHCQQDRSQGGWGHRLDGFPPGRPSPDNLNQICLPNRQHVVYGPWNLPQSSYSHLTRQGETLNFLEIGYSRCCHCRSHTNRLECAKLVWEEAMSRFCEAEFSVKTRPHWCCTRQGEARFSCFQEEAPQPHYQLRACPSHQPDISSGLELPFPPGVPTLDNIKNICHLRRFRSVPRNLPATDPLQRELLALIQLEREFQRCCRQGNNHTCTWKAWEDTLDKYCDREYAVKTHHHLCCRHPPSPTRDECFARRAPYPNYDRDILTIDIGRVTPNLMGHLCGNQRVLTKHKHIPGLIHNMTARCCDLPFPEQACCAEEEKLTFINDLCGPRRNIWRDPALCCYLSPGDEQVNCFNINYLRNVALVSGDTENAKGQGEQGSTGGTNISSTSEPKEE
UniProt Q9H8V3: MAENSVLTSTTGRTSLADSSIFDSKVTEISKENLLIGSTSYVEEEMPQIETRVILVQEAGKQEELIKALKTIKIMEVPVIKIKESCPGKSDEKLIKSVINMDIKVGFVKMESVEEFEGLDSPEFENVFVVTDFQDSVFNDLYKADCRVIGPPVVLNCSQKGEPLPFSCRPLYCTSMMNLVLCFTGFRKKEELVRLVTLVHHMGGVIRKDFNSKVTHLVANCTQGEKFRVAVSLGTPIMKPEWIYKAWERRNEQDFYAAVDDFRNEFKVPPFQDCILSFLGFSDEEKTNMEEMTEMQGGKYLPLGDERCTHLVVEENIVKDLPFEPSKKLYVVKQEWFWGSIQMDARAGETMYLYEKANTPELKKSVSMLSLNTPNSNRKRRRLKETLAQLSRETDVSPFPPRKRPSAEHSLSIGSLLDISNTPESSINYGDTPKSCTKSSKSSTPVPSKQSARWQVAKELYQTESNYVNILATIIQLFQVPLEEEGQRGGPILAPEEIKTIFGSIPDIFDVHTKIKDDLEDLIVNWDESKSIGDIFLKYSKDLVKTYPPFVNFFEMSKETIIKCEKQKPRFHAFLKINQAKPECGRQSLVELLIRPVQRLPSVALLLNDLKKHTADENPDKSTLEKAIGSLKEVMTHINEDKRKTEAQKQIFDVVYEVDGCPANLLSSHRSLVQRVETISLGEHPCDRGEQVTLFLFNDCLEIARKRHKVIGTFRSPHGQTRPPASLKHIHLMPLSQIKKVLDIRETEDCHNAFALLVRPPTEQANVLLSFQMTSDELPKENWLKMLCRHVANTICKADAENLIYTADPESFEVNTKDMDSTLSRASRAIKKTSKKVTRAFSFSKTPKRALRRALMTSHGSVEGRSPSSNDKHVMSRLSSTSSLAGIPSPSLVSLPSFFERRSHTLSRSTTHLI

Columns and labels:
Experiment in all cases: log2 fold change, soluble protein after heating vs DMSO (PISA); higher = thermal stabilisation; K562 cells, 10 uM, 30 min; active = over 0.2 and 3.5 SD of the protein, either way, in both replicates (recomputed)
mubritinib = compound: FC(F)(F)c1ccc(/C=C/c2nc(COc3ccc(CCCCn4ccnn4)cc3)co2)cc1 [mubritinib]
How it was run: (§1)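 K562 cells at 2×10^6 cells/mL were exposed to 10 μM compound for 30 min, then aliquots were heated for 3 min across 48°C-58°C, pooled, and extracted in PBS containing 0.5% NP-40 at 4°C. The supernatant after 21,000xg for 90 min was taken as soluble protein and measured by TMTpro 16plex LC-MS/MS with channel sums equalised. Thermal stability is reported relative to control samples, with values from duplicates. Fold changes are given on a log2 scale.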

tozasertib = compound: Cc1cc(Nc2cc(N3CCN(C)CC3)nc(Sc3ccc(NC(=O)C4CC4)cc3)n2)n[nH]1 [tozasertib]
How it was run: as §1

bafetinib = compound: Cc1ccc(NC(=O)c2ccc(CN3CC[C@H](N(C)C)C3)c(C(F)(F)F)c2)cc1Nc1nccc(-c2cncnc2)n1 [bafetinib]
How it was run: as §1

nilotinib = compound: Cc1cn(-c2cc(NC(=O)c3ccc(C)c(Nc4nccc(-c5cccnc5)n4)c3)cc(C(F)(F)F)c2)cn1 [nilotinib]
How it was run: as §1

[1] = compound: Cc1nc(Nc2n[nH]c3c2CN(C(=O)N[C@H](CN(C)C)c2ccccc2)C3(C)C)c2sccc2n1
How it was run: as §1

[2] = compound: Cc1ncc(-c2ccnc(Nc3ccc(S(C)(=O)=O)cc3)n2)n1C(C)C
How it was run: as §1

[3] = compound: CS(=O)(=O)c1ccc(-c2cnc(N)c(C(=O)Nc3ccccc3)n2)cc1
How it was run: as §1

[4] = compound: C[C@@H]1COCCN1C2=NC(=NC(=C2)C3(CC3)S(=O)(=O)C)C4=C5C=CNC5=CC=C4
How it was run: as §1

ispinesib = compound: Cc1ccc(C(=O)N(CCCN)[C@@H](c2nc3cc(Cl)ccc3c(=O)n2Cc2ccccc2)C(C)C)cc1 [ispinesib]
How it was run: as §1

[5] = compound: Cn1cc(-c2ccc3nnc(C(F)(F)c4ccc5ncccc5c4)n3n2)cn1
How it was run: as §1

Measured: log2 fold change

DNAJC14 (UniProt Q6Y2X3)
inactive: mubritinib -0.322

ECM1 isoform 2 (UniProt Q16610)
inactive: tozasertib 0.279 | bafetinib 0.238 | nilotinib 0.452 | [1] 0.016 | [2] 0.582 | mubritinib -0.289

ECT2 isoform 3 (UniProt Q9H8V3)
inactive: [3] -0.057 | [4] -0.112 | ispinesib -0.035 | [5] 0.08
